Data published in PubChem BioAssay AID1487 (National Center for Advancing Translational Sciences (NCATS), 2009).
The other results are listed elsewhere or left out. Shown are side measurements of this screen, not its main read-out; they come without a call. Compounds called inactive in the main read-out are mostly missing here. Potencies come from curve fits of mixed quality, noted in brackets.

Assay: qHTS Assay for Modulators of Lamin A Splicing
Conditions: HeLa LMNA splicing GFP/RFP minigene ratio, 48 h
Method in brief: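 S3 HeLa stable clones carrying a lamin A-EGFP splicing minigene plus DsRed2 were seeded at 600 cells/well in Opti-MEM with 2% FBS, pin-dosed and incubated 48 h at 37°C. Acumen cytometry (488 nm) gave the GFP/RFP total-intensity ratio.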

[1] = measured here: RFP viability control channel
[2] = measured here: GFP splicing reporter channel

SMILES | AC50 [1] | AC50 [2]
COc1ccc(NC(=S)N(CCc2c(C)[nH]c3ccccc23)Cc2cccnc2)cc1 | 2.24 µM [rising, partial curve, poor fit] | –
O=C(CSc1c2c(nc3cc(Cl)ccc13)CCCC2)NCc1ccco1 | 17.8 µM [rising, single point] | –
Oc1c(C(c2ccccc2)N2CCN(c3ccccc3)CC2)sc2nc(-c3ccco3)nn12 (stereo not given) | 31.6 µM [falling, single point] | –
CCN1C(=O)C2C(c3cccc(F)c3)NC(C)(C(=O)OC)C2C1=O (stereo not given) | – | 0.501 µM [falling, single point]
Cc1ccc2nc(Cl)c(/C=N/NC(=O)c3ccccc3O)cc2c1 | 35.5 µM [rising, single point] | –
CCOC(=O)c1cc(C#N)c(SCc2ccc(C#N)cc2)nc1C | – | 14.1 µM [rising, single point]
Clc1cccc(Cl)c1CON/C=N/c1ncnc2sccc12 | 2.51 µM [rising, partial curve] | –
Cc1cc(/C=N/NC(N)=S)c(C)n1-c1ccc(Cl)c(Cl)c1 | 2.51 µM [rising, partial curve, poor fit] | 6.31 µM [rising, partial curve]
O=C(CSc1nnc(Nc2ccccc2F)s1)Nc1cccc(S(=O)(=O)N2CCCCC2)c1 | 35.5 µM [rising, single point] | –
S=C1NC(c2cccs2)=CC(c2ccc(Br)cc2)N1 (stereo not given) | 28.2 µM [rising, single point] | 35.5 µM [rising, single point]
CCN(CC)C(=O)NC(c1ccc(C)c(F)c1)C(Cl)(Cl)Cl (stereo not given) | 22.4 µM [rising, single point] | –
CCSC(=Nc1ccccc1)Nc1ccccc1 | – | 0.0708 µM [falling, full curve, poor fit]
COc1ccccc1NC(=S)NNC(=O)c1ccc(Cl)cc1Cl | 31.6 µM [rising, single point] | –
O=C(NNc1c(Cl)cc(Cl)cc1Cl)C1CCC1 | – | 5.62 µM [rising, full curve, poor fit]
Cc1noc(C)c1-c1nccc(-n2ccnc2)n1 | 3.55 µM [rising, single point] | 5.01 µM [rising, single point]
CCc1cccc(N=c2c([N+](=O)[O-])nn(-c3ccc(Cl)cc3)n2O)c1 | 35.5 µM [rising, single point] | –
O=C(CNC1CCCCC1)NCC1(c2ccccc2)CCCC1 | 35.5 µM [falling, single point] | 17.8 µM [falling, partial curve, poor fit]
Cc1ccc(N=N/C(=C\O)C(=O)c2ccc(Cl)cc2)cc1 | 2.51 µM [falling, partial curve] | –
COc1ccc(N2CCN(C(=O)Nc3cccc(C(F)(F)F)c3)CC2)cc1 | 35.5 µM [rising, single point] | –
C=CCNC(=S)NNC(=O)c1cc(C)nc2ccccc12 | – | 35.5 µM [rising, single point]

An excerpt from further up:
SMILES | AC50 [1] | AC50 [2]
Cc1ccc(N=N/C(=C\O)C(=O)c2ccc(Cl)cc2)cc1 | 2.51 µM [falling, partial curve] | –
COc1ccc(N2CCN(C(=O)Nc3cccc(C(F)(F)F)c3)CC2)cc1 | 35.5 µM [rising, single point] | –

Continuation:

SMILES | AC50 [1] | AC50 [2]
O=C(O)C1C2CCC(O2)C1C(=O)Nc1ccc(O)cc1 (stereo not given) | – | 2.24 µM [falling, partial curve, poor fit]
CC(=O)Oc1ccccc1C(=O)Oc1ccccc1C(=O)O | 0.316 µM [falling, single point] | 0.316 µM [falling, full curve, poor fit]
Cc1cc(C(=O)CSc2nnc(Cc3ccccc3)o2)c(C)n1Cc1ccc2c(c1)OCO2 | 11.2 µM [rising, single point] | –
CC1(C)COCN1S(=O)(=O)c1ccc(C(=O)Nc2nnc(-c3ccc(Cl)s3)o2)cc1 | 12.6 µM [rising, partial curve, poor fit] | –
COc1ccc(-n2cc(-c3ccc(C)cc3)[n+]3c2SCC3)cc1 | 3.16 µM [rising, full curve] | –
O=C1Nc2ccccc2C1(c1ccccc1)c1ccccc1 | 31.6 µM [rising, single point] | –
Nc1ccccc1SC1CC(=O)N(c2ccccc2Cl)C1=O (stereo not given) | – | 2 µM [rising, partial curve, poor fit]
O=C(NCCc1ccccc1)c1cc(Sc2ccc(F)cc2F)nc2ccccc12 | – | 0.0224 µM [rising, full curve, poor fit]
Cc1cc(O)c(C(C)C)cc1Cl | 35.5 µM [falling, single point] | 35.5 µM [falling, single point]
COc1ccc(NS(=O)(=O)c2ccc3[nH]c4c(c3c2)CCCCCC4)cc1 | 31.6 µM [falling, single point] | 35.5 µM [falling, single point]
COC(=O)c1cn(NC(=O)c2ccccc2[N+](=O)[O-])c(=O)c2ccccc12 | – | 35.5 µM [falling, single point]
CC1CCC(C(C)C)C(OC(=O)Cn2c(-c3ccc(F)cc3)[n+](C)c3ccccc32)C1 (stereo not given) | 11.2 µM [rising, partial curve] | –
CCN(CC)c1ccc(NC(=O)CSc2ccsc2[N+](=O)[O-])c(C)c1 | 35.5 µM [rising, single point] | –
O=C(Nc1nc2c(s1)CCCC2)c1ccc(Br)s1 | 25.1 µM [rising, single point] | –
COc1cc(OC)cc(-c2nnc(Sc3ccc(C=O)cc3[N+](=O)[O-])o2)c1 | – | 17.8 µM [falling, single point]
COc1ccc(O)c(-c2[nH]ncc2C(=O)c2ccccc2C)c1 | – | 0.355 µM [rising, full curve, poor fit]
O=C(COc1cccc(C(F)(F)F)c1)N1CCN(c2ccc(O)cc2)CC1 | 3.98 µM [rising, partial curve] | –
Cc1ccc(-c2csc(N(CC3CCCO3)C(=O)c3ccco3)n2)cc1 (stereo not given) | 17.8 µM [rising, partial curve] | 14.1 µM [rising, single point]
CCCCn1c(CN(C)Cc2ccccc2)nc2c1c(=O)n(C)c(=O)n2C | 11.2 µM [rising, partial curve] | –
COc1cccc(NC(=S)N/N=C2/CCCCc3ccccc32)c1 | 35.5 µM [rising, single point] | –

Whole records as entered above.
`Cc1ccc2nc(Cl)c(/C=N/NC(=O)c3ccccc3O)cc2c1` reads AC50 [1]: 35.5 µM [rising, single point]
`COc1ccccc1NC(=S)NNC(=O)c1ccc(Cl)cc1Cl` reads AC50 [1]: 31.6 µM [rising, single point]
`O=C(CSc1c2c(nc3cc(Cl)ccc13)CCCC2)NCc1ccco1` reads AC50 [1]: 17.8 µM [rising, single point]
`COc1ccc(O)c(-c2[nH]ncc2C(=O)c2ccccc2C)c1` reads AC50 [2]: 0.355 µM [rising, full curve, poor fit]

Following part

SMILES | AC50 [1] | AC50 [2]
Cc1c(CCOC(=O)C23CC4CC(CC(C)(C4)C2)C3)sc[n+]1Cc1ccccc1 | – | 12.6 µM [rising, single point]
CN(C)/C=C/c1onc(-c2ccccc2Cl)c1C#N | – | 28.2 µM [falling, partial curve]
Cc1ccc(S(=O)(=O)n2c3ccc(F)cc3c3nc(C)sc32)cc1 | 31.6 µM [rising, single point] | 12.6 µM [rising, single point]
COCCCNC(=O)Cc1coc2ccc3ccccc3c12 | 17.8 µM [falling, single point] | 22.4 µM [falling, single point]
CCN(CC)S(=O)(=O)c1cccc(-c2cn3cc(C)ccc3n2)c1 | 17.8 µM [rising, single point] | –
CC(C)N=C(NS(=O)(=O)c1ccccc1)C(Cl)(Cl)Cl | 6.31 µM [falling, partial curve] | 35.5 µM [falling, partial curve]
COCCNc1ncnc2c1c(-c1ccccc1)cn2-c1cccc(Cl)c1 | 35.5 µM [falling, partial curve, poor fit] | 35.5 µM [falling, partial curve, poor fit]
CC(/C=C/c1cccc([N+](=O)[O-])c1)=N/NC(=O)c1cccnc1 | 35.5 µM [rising, single point] | –
COc1cc(NC(=O)CSc2ccc3c(c2)OCCO3)cc(OC)c1OC | – | 0.447 µM [falling, single point]
CC(Oc1cc(Cl)ccc1Cl)C(=O)N/N=C\c1ccnn1C (stereo not given) | 3.55 µM [falling, partial curve] | –
Cc1noc(C)c1-c1ccc2ncnc(NCCN3CCOCC3)c2c1 | – | 12.6 µM [falling, partial curve]
CS/C(=N/S(=O)(=O)c1ccc(C)cc1)c1ccccc1 | 15.8 µM [rising, partial curve] | –
O=C(CSc1nc(Nc2ccccc2)nc(N2CCOCC2)n1)N1CCc2ccccc21 | 3.98 µM [rising, full curve] | 3.98 µM [rising, full curve, poor fit]
COCCOC(=O)/C(C#N)=C/c1cn(Cc2ccccc2)nc1-c1cccnc1 | – | 35.5 µM [falling, single point]
CCN(CC)CCOC(=O)c1ccc(N)cc1 | – | 0.0794 µM [rising, full curve, poor fit]
O=C(Cc1ccc(F)cc1)Nc1cccc(-c2cn3c(n2)SCC3)c1 | 2.51 µM [falling, partial curve, poor fit] | –
Cn1c(=O)c2c(nc(NC(Cc3ccccc3)C(=O)O)n2Cc2ccccc2)n(C)c1=O (stereo not given) | 3.98 µM [falling, single point] | 3.16 µM [falling, single point]
CCOC(=O)C1CC(c2ccccc2)=NNC1=O (stereo not given) | – | 0.251 µM [falling, full curve]
CN1CCN(c2ncc3nc(-c4cn(C)c5ccccc45)c(=O)n(C[C@H]4CCCO4)c3n2)CC1 | 20 µM [falling, partial curve] | 31.6 µM [falling, single point]
Cc1cnc(CNc2ncnc3ccc(-c4ccccc4C)cc23)cn1 | – | 7.94 µM [falling, partial curve, poor fit]
